Measured data: PubChem BioAssay AID743121 (NCATS, 2013)
Here is a random part of about 26,000 reagents tested. 167 of all reagents (0.63%) count as active. 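Calls are per gene from RSA p-values that are not deposited; an individual active-marked siRNA can sensitise only weakly.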 Reagents against one gene are numbered here. Further read-outs or replicates are left out here. No sequences are given here.

- Aim: 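Partners whose loss is lethal together with topoisomerase I blockade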 (primary screen)
- Cell system: MDA-MB-231 cells, a human breast cancer line
- Knock-down reagent: single siRNA against human genes, 20 nM siRNA (0.8 pmol per well)
- Timing: 120 h (drug added 48 h after transfection, read 72 h later)
- Conditions: camptothecin 20 nM (about EC30) for 72 h; vehicle 0.1% DMSO in parallel plates
- Measurement: 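Cell viability by ATP luminescence (CellTiter-Glo) as % of non-targeting siRNA wells, and the log2 ratio of viability without drug over viability with camptothecin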
- Scale: log2 vehicle/camptothecin viability: higher = stronger sensitisation to camptothecin; viability with camptothecin: higher = more viable cells
- Units: viability with camptothecin in % of control
- Rule for the call: 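Active genes have an RSA gene-level p-value below 0.001, computed from the ratios of their separate siRNAs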

Against PRTN3 (proteinase 3) #1 the deposit lists log2 vehicle/camptothecin viability 0.502; viability with camptothecin 40.3; inactive. Silencing of PRTN3 (proteinase 3) #2 gave: log2 vehicle/camptothecin viability -0.142; viability with camptothecin 90.4; inactive. Depletion of PRTN3 (proteinase 3) #3 came out at: log2 vehicle/camptothecin viability 0.738; viability with camptothecin 45.7; inactive. PRTN3 (proteinase 3) #4 gave log2 vehicle/camptothecin viability 0.0789; viability with camptothecin 81.7; inactive. Silencing of PROM1 (prominin 1) #1 came out at: log2 vehicle/camptothecin viability -0.232; viability with camptothecin 110; inactive. PROM1 (prominin 1) #2 showed log2 vehicle/camptothecin viability 0.288; viability with camptothecin 71.5; inactive.

After knock-down of PROM1 (prominin 1) #3, the screen gave log2 vehicle/camptothecin viability -0.217; viability with camptothecin 98.4; inactive. Against PROM1 (prominin 1) #4, the values are log2 vehicle/camptothecin viability -0.389; viability with camptothecin 125; inactive. After knock-down of COQ8A (coenzyme Q8A) #1 the results were log2 vehicle/camptothecin viability -0.153; viability with camptothecin 124; inactive. Against COQ8A (coenzyme Q8A) #2, the values are log2 vehicle/camptothecin viability -0.105; viability with camptothecin 100; inactive. Silencing of COQ8A (coenzyme Q8A) #3 resulted in: log2 vehicle/camptothecin viability 0.399; viability with camptothecin 38.4; inactive. COQ8A (coenzyme Q8A) #4 scored log2 vehicle/camptothecin viability -0.147; viability with camptothecin 90; inactive.

After knock-down of CDKL1 (cyclin dependent kinase like 1) #1, the record shows log2 vehicle/camptothecin viability 0.0995; viability with camptothecin 106; inactive. For CDKL1 (cyclin dependent kinase like 1) #2 the deposit lists log2 vehicle/camptothecin viability -0.564; viability with camptothecin 25.5; inactive. Against CDKL1 (cyclin dependent kinase like 1) #3, the entry reads log2 vehicle/camptothecin viability -0.0171; viability with camptothecin 78.6; inactive. For CDKL1 (cyclin dependent kinase like 1) #4, the values are log2 vehicle/camptothecin viability -0.189; viability with camptothecin 81.2; inactive.

3 entries already listed, ordered by “log2 vehicle/camptothecin viability”, lowest first.
COQ8A (coenzyme Q8A) #4 | log2 vehicle/camptothecin viability: -0.147; viability with camptothecin: 90; call: inactive
COQ8A (coenzyme Q8A) #2 | log2 vehicle/camptothecin viability: -0.105; viability with camptothecin: 100; call: inactive
COQ8A (coenzyme Q8A) #3 | log2 vehicle/camptothecin viability: 0.399; viability with camptothecin: 38.4; call: inactive
